Here are results for 1 substance from article PMC11161512.

Sequences of proteins named here, by UniProt entry; tags and fusion partners are left off. Residues count along the entry.
UniProt Q9EQY0, residues 21-977: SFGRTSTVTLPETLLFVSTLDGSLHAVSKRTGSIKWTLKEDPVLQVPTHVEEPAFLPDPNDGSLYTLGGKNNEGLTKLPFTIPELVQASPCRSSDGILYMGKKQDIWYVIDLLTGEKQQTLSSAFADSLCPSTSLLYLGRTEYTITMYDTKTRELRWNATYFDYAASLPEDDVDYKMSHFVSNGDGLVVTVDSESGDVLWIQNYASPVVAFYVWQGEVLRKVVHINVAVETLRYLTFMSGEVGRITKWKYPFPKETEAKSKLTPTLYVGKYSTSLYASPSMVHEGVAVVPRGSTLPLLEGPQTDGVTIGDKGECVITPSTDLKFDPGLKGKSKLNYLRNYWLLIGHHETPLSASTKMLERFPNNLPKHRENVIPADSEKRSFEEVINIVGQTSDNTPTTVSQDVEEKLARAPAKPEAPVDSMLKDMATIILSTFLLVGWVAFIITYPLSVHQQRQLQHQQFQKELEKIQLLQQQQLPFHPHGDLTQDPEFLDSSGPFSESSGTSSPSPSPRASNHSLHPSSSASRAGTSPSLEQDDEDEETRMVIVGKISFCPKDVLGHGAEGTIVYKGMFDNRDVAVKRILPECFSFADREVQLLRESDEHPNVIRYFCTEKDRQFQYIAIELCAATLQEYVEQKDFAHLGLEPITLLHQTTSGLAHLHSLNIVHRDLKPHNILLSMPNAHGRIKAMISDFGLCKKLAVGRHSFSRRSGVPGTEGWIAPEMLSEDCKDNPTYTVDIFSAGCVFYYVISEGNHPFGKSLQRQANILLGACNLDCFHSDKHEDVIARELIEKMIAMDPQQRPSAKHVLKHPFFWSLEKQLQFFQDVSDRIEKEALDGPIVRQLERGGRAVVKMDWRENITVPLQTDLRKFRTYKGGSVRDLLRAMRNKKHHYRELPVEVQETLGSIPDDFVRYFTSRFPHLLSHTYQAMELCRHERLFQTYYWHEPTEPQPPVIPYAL
UniProt Q6PHQ9: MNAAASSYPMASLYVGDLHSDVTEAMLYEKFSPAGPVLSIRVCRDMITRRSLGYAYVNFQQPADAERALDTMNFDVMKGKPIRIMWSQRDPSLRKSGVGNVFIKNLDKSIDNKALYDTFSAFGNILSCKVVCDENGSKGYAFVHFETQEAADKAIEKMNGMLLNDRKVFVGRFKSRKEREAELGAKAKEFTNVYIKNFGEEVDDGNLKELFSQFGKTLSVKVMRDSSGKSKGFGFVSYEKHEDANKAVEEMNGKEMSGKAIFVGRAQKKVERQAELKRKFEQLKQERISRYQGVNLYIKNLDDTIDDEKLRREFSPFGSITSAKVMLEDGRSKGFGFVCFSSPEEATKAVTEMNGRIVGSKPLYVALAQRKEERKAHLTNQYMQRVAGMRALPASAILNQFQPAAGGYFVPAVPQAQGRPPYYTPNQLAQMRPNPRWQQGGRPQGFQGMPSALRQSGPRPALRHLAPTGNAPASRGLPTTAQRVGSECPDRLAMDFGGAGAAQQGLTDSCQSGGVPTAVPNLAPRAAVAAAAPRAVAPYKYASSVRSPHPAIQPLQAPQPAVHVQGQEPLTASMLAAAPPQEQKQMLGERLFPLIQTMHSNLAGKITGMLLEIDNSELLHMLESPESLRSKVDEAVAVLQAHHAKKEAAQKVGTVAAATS

No constants are given. Whether binding was seen depends on the method and setting. Binding seen in cells or lysates may run through a third protein. Some entries that bind do so weakly or less than the wild type.

The assay deals with Inositol-Requiring Enzyme 1α (Ire1α) (mouse (endogenous in embryonic cortex)) (UniProt Q9EQY0). Kind of assay: co-IP; endogenous Ire1α precipitated with anti-Ire1α antibody (Cell Signaling) and Sepharose A beads from E12.5 and E14.5 mouse cortical lysate (E1A buffer: 150 mM NaCl, 50 mM HEPES pH 7.0, 0.1% NP-40), 4 °C; rabbit IgG as control; Western blotting of co-precipitated proteins, normalised to precipitated Ire1α. (In general: Immunoblotting shows a protein as a band on a membrane.)

Regarding PABPC4 (from UniProt Q6PHQ9 1-660), the binding result is recorded as “binds”.
